Laboratory results reported in paper PMC2387164.

Chains of the proteins cited; added tags and fusions are not shown. Lines headed by an entry give the natural chain unless they say otherwise; changes in a name come on top.
UniProt Q08369: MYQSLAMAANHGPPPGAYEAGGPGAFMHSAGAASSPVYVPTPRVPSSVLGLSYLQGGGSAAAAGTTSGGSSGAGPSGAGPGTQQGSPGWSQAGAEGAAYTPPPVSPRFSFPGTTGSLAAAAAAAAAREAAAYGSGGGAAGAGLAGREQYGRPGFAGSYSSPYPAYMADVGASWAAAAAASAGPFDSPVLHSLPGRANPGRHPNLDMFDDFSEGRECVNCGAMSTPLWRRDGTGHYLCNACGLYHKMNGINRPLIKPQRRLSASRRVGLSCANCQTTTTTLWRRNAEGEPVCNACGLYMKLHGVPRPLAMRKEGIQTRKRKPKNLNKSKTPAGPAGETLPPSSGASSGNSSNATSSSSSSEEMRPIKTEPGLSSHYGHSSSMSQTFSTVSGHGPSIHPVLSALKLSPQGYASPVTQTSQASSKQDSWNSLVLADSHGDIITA

Target: GATA4 (UniProt Q08369)
Assay: EMSA
Conditions: labeled probe, self competitor; EMSA conditions as described previously (ref. 48); pH and temperature not given; protein translated in vitro; label: 32P (as probe)

GATCCACTTTTTTATCTCAAGTGA / GATCTCACTTGAGATAAAAAAGTG [murine Star GATA]
binding result: binds

For at least one entry, the source does not settle the construct or the ends of the probe. At least one verdict rests on a figure or table, not on a statement of the authors.
